In article PMC11097450:
These are yes or no findings as the source states them, for the method shown. Binding seen in cells or lysates may run through a third protein. Binding can be weak; no strength is given.

T1: MARCKS (myristoylated alanine-rich c-kinase substrate) (human (endogenous in 293T and TNBC cells)) (UniProt P29966)
T1 sequence: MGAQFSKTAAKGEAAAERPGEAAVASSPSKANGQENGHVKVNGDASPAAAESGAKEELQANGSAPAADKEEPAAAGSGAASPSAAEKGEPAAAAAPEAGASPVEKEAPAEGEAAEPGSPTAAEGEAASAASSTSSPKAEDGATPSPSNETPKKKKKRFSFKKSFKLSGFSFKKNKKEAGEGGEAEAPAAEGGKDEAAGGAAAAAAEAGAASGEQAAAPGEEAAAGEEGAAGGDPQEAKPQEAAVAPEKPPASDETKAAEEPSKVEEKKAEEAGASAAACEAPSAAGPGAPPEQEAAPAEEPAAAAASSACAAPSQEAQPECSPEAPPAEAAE

B1: MARCKS (myristoylated alanine-rich c-kinase substrate) (protein, UniProt P29966 1-332)
chain: T1 sequence

What was measured:
[1] = target: T1, MARCKS (myristoylated alanine-rich c-kinase substrate) (human (endogenous in 293T and TNBC cells)); test: co-IP; TRIM1-269aa-Flag transfected into 293T and TNBC cells; IP with Flag, MARCKS or calmodulin antibodies, protein A/G beads, western blot; lysis buffer 1% Triton X-100, 50 mM Tris pH 7.5, 1 mM EDTA, 150 mM NaCl
TRIM1-269aa-Flag (human) = test: as above

Row | Molecule | binding [1] | binding (TRIM1-269aa-Flag (human))
1 | TRIM1-269aa-Flag (human) | binds | –
2 | B1 | – | binds
